The supplement of paper PMC8426693
This is one part of the list.

Columns and labels:
Experiment in all cases: NMR binding call after quantification (hit when 2 of 3 NMR criteria are met) (binary (1 = binding, 0 = not binding)); higher = binding
Settings in all cases: RNA concentration 10 µM; fragment concentration 200 µM; 293 K
SARS-CoV-2 5'-UTR RNA = test system: SARS-CoV-2 5'-UTR RNA
SARS-CoV-2 5_SL1 RNA = test system: SARS-CoV-2 5_SL1 RNA
SARS-CoV-2 5_SL1234 RNA = test system: SARS-CoV-2 5_SL1234 RNA
SARS-CoV-2 5_SL2+3 RNA = test system: SARS-CoV-2 5_SL2+3 RNA
SARS-CoV-2 5_SL4 RNA = test system: SARS-CoV-2 5_SL4 RNA
SARS-CoV-2 5_SL5 RNA = test system: SARS-CoV-2 5_SL5 RNA
SARS-CoV-2 5_SL5a RNA = test system: SARS-CoV-2 5_SL5a RNA
SARS-CoV-2 5_SL5b+c RNA = test system: SARS-CoV-2 5_SL5b+c RNA
SARS-CoV-2 5_SL5stem RNA = test system: SARS-CoV-2 5_SL5stem RNA
SARS-CoV-2 5_SL6 RNA = test system: SARS-CoV-2 5_SL6 RNA

Measured: NMR binding call

O=C(NCc1ccco1)NC1CCCCC1
0: all assays above

C1CC(c2nc(C3CC3)no2)CN1 (stereo not given)
0: all assays above

COc1cccc(C(N)CC(=O)O)c1 (stereo not given)
0: all assays above

CCOc1ncccc1C(N)=O
0: all assays above

Cc1cc(C(=O)NCC2CCOC2)on1 (stereo not given)
0: all assays above

Two records picked at random from those above:
CCOc1ncccc1C(N)=O
0: all assays above

Cc1cc(C(=O)NCC2CCOC2)on1 (stereo not given)
0: all assays above

Further results:

CC(C)c1nccn1CC(=O)O
0: all assays above

CC(C)(C(N)=O)c1ccccc1
0: all assays above

CNc1nccnc1C#N
0: all assays above

Cc1ccccc1-n1cc(C(=O)O)nn1
0: all assays above

COc1ccccc1NC(=O)c1ccc(C)s1
0: all assays above

Cc1cccc(NC(=O)CN2CCOCC2)c1C
0: all assays above

CNC(C)c1ccc(F)cc1.Cl (stereo not given)
0: all assays above

CS(=O)(=O)NC1CCCC1
0: all assays above

CCOc1ccc(CC(=O)O)cc1
0: all assays above

Cc1nn(C)c(C)c1CC(N)=O
0: all assays above

CC1CCN(C(=O)CCCc2ccccc2)CC1
0: all assays above

CC(C)N(C)S(=O)(=O)N1CCNC(=O)C1
0: all assays above

CC(C)(O)CN1CCC(N)C1 (stereo not given)
0: all assays above

CCOC(=O)c1cc(-c2ccc(F)cc2)no1
0: all assays above

CNS(=O)(=O)CC1CCCCC1
0: all assays above

O=C(Nc1ccccn1)c1cnccn1
1: SARS-CoV-2 5'-UTR RNA | SARS-CoV-2 5_SL5 RNA
0: all other assays above

Cc1nnc(CN2CCC=C(F)C2)s1
0: all assays above

Cc1ccc(OCC(=O)N2CCOCC2)c(C)c1
0: all assays above

N#CCC(=O)NC1CCCCC1
0: all assays above
